Source: patent US9663478B2, “Benzotriazine oxides as drugs targeting Mycobacterium tuberculosis” (priority 2011, dated 2017)
Converted amounts (≈) assume the structure as drawn.

Experiments:
[1] = system: Mtb H37Rv; assay: TB MIC - SRI, resazurin-based microplate assay; type: cell-based; conditions: Mycobacterium tuberculosis, Tables 1-4 and text
[2] = system: Mtb H37Rv; assay: TB MIC - ITR (UIC), Institute for Tuberculosis Research; type: cell-based; conditions: Mycobacterium tuberculosis, Tables 1-4

O=C1OCCN1/N=C/c1ccc([N+](=O)[O-])o1 [Furazolidone, reference compound]
MIC [1]: 31 µg/mL (≈ 138 µM) | MIC [2]: 30 µg/mL (≈ 133 µM)
